Source: publication doi:10.1101/2020.02.12.945162
Results are given in words; binding and its absence hold for the method and conditions named. Binding can be weak; no strength is given. Tags and fused reporters may be left off the sequences shown.

Biological target: T1, GST-tagged Frizzled6 C-terminal domain (GST-Frizzled6^497-567) (UniProt O60353)
T1 sequence: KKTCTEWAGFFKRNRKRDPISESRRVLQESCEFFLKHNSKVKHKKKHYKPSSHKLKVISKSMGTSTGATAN
Experiment: pull-down

- binding: binds
Substance: FLAG-tagged C-terminal unfolded domain of epsinR (epsinR^ΔENTH-FLAG) (domain or fragment)
